Results taken from PubChem BioAssay AID330 (DTP/NCI, 2004).
The list is a part of this screen's results and no random one: it gathers tests that were run many times, whatever their T/C, doses with no T/C, and many T/C values between a quarter and a half above the control. Other doses and runs of a compound stand elsewhere. T/C is the treated group as % of the vehicle group. Some doses have a count of surviving animals in place of a T/C: the source files T/C as zero there, which appears to mark a toxic dose or a test without result, not a measured value. Some survivor counts are full or nearly so, which does not show that the dose was tolerated: survival well below the control is almost never listed, so the zero probably covers shortened survival too. Counts of survivors are from the toxicity check (mostly the fifth day) where no day follows; animals may have died later. Schedule codes are those of the source, taken here to give the interval after Q, in days (D) or hours (H), and the number of doses after X. Some doses were run more than once; the results are listed from low to high. For survival time, this PubChem deposit counts one and a half times the control or more as active, and values a quarter to a half above the control carry no call in these data; other NCI protocols may use other cut-offs. Some T/C values carry the count of animals alive at the toxicity check (mostly the fifth day); where none is given, no animal had died by that day.

Test system: P388 leukemia ip, CD2F1 mice, survival T/C
Assay: NCI In Vivo Anticancer Drug Screen. Data for tumor model P388 Leukemia (intraperitoneal) in CD2F1 (CDF1) mice
Conditions: T/C endpoint: median survival time, higher T/C = longer survival
[1] = dose: 200.0 mg/kg/injection, schedule: Q01DX009 (ip), vehicle: saline with Tween-80
[2] = dose: 200.0 mg/kg/injection, schedule: Q01DX009 (ip), vehicle: saline
[3] = dose: 200.0 mg/kg/injection, schedule: Q01DX005 (ip), vehicle: saline
[4] = dose: 200.0 mg/kg/injection, schedule: Q01DX005 (ip), vehicle: Klucel (hydroxypropylcellulose) (HPC)
[5] = dose: 200.0 mg/kg/injection, schedule: Q01DX009 (ip), vehicle: Klucel (hydroxypropylcellulose) (HPC)
[6] = dose: 60.0 mg/kg/injection, schedule: Q01DX005 (ip), vehicle: saline with Tween-80
[7] = dose: 120.0 mg/kg/injection, schedule: Q01DX005 (ip), vehicle: saline with Tween-80
[8] = dose: 240.0 mg/kg/injection, schedule: Q01DX005 (ip), vehicle: saline with Tween-80
[9] = dose: 50.0 mg/kg/injection, schedule: Q01DX009 (ip), vehicle: saline with Tween-80
[10] = dose: 100.0 mg/kg/injection, schedule: Q01DX009 (ip), vehicle: saline with Tween-80

NC(=O)c1[nH]cnc1NN=NCCF
T/C (dose: 0.78 mg/kg/injection, schedule: Q01DX009 (ip), vehicle: distilled water + Tween-80): 144 % of control
T/C (dose: 1.56 mg/kg/injection, schedule: Q01DX009 (ip), vehicle: distilled water + Tween-80): 126 % of control
T/C (dose: 3.13 mg/kg/injection, schedule: Q01DX009 (ip), vehicle: distilled water + Tween-80): 142 % of control
survivor count (dose: 6.25 mg/kg/injection, schedule: Q01DX009 (ip), vehicle: distilled water + Tween-80): 2 of 6
survivor count (dose: 12.5 mg/kg/injection, schedule: Q01DX009 (ip), vehicle: distilled water + Tween-80): 0 of 6
survivor count (dose: 25.0 mg/kg/injection, schedule: Q01DX009 (ip), vehicle: distilled water + Tween-80): 0 of 6
survivor count (dose: 50.0 mg/kg/injection, schedule: Q01DX009 (ip), vehicle: distilled water + Tween-80): 0 of 6
survivor count (dose: 100.0 mg/kg/injection, schedule: Q01DX009 (ip), vehicle: distilled water + Tween-80): 0 of 6
survivor count (dose: 200.0 mg/kg/injection, schedule: Q01DX009 (ip), vehicle: distilled water + Tween-80): 0 of 6

COc1ccc(N=C(N=C(NC(=O)c2ccccc2)c2ccccc2)c2ccccc2)cc1
survivor count [1]: 6 of 6

C1=CC2CCC1C1CSCC21 (configuration not stated)
survivor count (dose: 100.0 mg/kg/injection, schedule: Q01DX009 (ip), vehicle: saline): 0 of 6
survivor count [2]: 0 of 6

NS(=O)(=O)c1ccc(N=NC2C(=O)N(c3ccc(Cl)cc3)C(=S)N(c3ccc(Cl)cc3)C2=O)cc1
survivor count (dose: 100.0 mg/kg/injection, schedule: Q01DX005 (ip), vehicle: saline): 1 of 6
survivor count [3]: 0 of 6

COc1ccc(OC)c(C(=O)c2ccccc2C(=O)O)c1
survivor count [4]: 6 of 6

CN(C)N=Nc1ccc(N(C)C)cc1
survivor count (dose: 6.25 mg/kg/injection, schedule: Q01DX009 (ip), vehicle: Klucel (hydroxypropylcellulose) (HPC)): 2 of 6
survivor count (dose: 12.5 mg/kg/injection, schedule: Q01DX009 (ip), vehicle: Klucel (hydroxypropylcellulose) (HPC)): 2 of 6
survivor count (dose: 25.0 mg/kg/injection, schedule: Q01DX009 (ip), vehicle: Klucel (hydroxypropylcellulose) (HPC)): 0 of 6
survivor count (dose: 50.0 mg/kg/injection, schedule: Q01DX009 (ip), vehicle: Klucel (hydroxypropylcellulose) (HPC)): 4 of 6
survivor count (dose: 100.0 mg/kg/injection, schedule: Q01DX009 (ip), vehicle: Klucel (hydroxypropylcellulose) (HPC)): 6 of 6
survivor count [5]: 4 of 6
survivor count (dose: 400.0 mg/kg/injection, schedule: Q01DX009 (ip), vehicle: Klucel (hydroxypropylcellulose) (HPC)): 4 of 6

O=C(O)C1C(C(=O)O)C2C(=O)C=CC1N2Cc1ccccc1 (configuration not stated)
survivor count [4]: 2 of 6 and 4 of 6

CC1(C)NNC(=S)NN1
survivor count (dose: 30.0 mg/kg/injection, schedule: Q01DX005 (ip), vehicle: saline with Tween-80): 2 of 6 and 3 of 6
survivor count [6]: 0 of 6
survivor count [7]: 0 of 6
survivor count [8]: 0 of 6

N#C/C(=C\c1cccs1)c1nc(-c2ccc(Cl)cc2)cs1
survivor count [2]: 6 of 6

Cc1c2c(=O)oc3ccc(Cl)cc3c2nn1-c1ccccc1
survivor count (dose: 240.0 mg/kg/injection, schedule: Q01DX005 (ip), vehicle: Klucel (hydroxypropylcellulose) (HPC)): 0 of 6

COc1cccc2c1C(=O)c1c(O)c3c(c(O)c1C2=O)CC(OC1CC(N)C(O)C(C)O1)(C(C)=O)CC3OC1CC(N)C(O)C(C)O1 (configuration not stated)
T/C (dose: 25.0 mg/kg/injection, schedule: Q01DX009 (ip), vehicle: water): 137 % of control

CCCCCCC(=O)/C=C/c1ccc(OC(=O)c2ccc(Br)cc2)cc1
survivor count [9]: 6 of 6
survivor count [10]: 6 of 6
survivor count [1]: 6 of 6

N#CN(Cc1ccccc1)Cc1ccccc1.[Br][Sn]([c]1ccccc1)([c]1ccccc1)[c]1ccccc1
survivor count (dose: 12.5 mg/kg/injection, schedule: Q01DX005 (ip), vehicle: saline with Tween-80): 3 of 6
survivor count (dose: 25.0 mg/kg/injection, schedule: Q01DX005 (ip), vehicle: saline with Tween-80): 1 of 6
survivor count (dose: 50.0 mg/kg/injection, schedule: Q01DX005 (ip), vehicle: saline with Tween-80): 0 of 6
survivor count (dose: 100.0 mg/kg/injection, schedule: Q01DX005 (ip), vehicle: saline with Tween-80): 0 of 6
survivor count (dose: 200.0 mg/kg/injection, schedule: Q01DX005 (ip), vehicle: saline with Tween-80): 0 of 6

CN1OC(C#N)CC1c1ccccc1 (configuration not stated)
survivor count (dose: 175.0 mg/kg/injection, schedule: Q04DX002 (ip), vehicle: Klucel (hydroxypropylcellulose) (HPC)): 3 of 6
survivor count (dose: 200.0 mg/kg/injection, schedule: Q04DX002 (ip), vehicle: Klucel (hydroxypropylcellulose) (HPC)): 2 of 6
survivor count (dose: 400.0 mg/kg/injection, schedule: Q04DX002 (ip), vehicle: Klucel (hydroxypropylcellulose) (HPC)): 1 of 6

N#Cc1c(NN)n(C2OC(CO)C(O)C2O)c2ncnc(N)c12 (configuration not stated)
T/C (dose: 25.0 mg/kg/injection, schedule: Q04DX003 (ip), vehicle: saline): 131 % of control
T/C (dose: 50.0 mg/kg/injection, schedule: Q04DX003 (ip), vehicle: saline): 140 % of control [5 of 6 alive]
T/C (dose: 100.0 mg/kg/injection, schedule: Q04DX003 (ip), vehicle: saline): 127 % of control [4 of 6 alive]

CCN(CC)Cc1c(C)[nH]c2cc(N(C)C)ccc2c1=O
survivor count [5]: 6 of 6

S=C([S][Sn]([c]1ccccc1)([c]1ccccc1)[c]1ccccc1)N1CCOCC1
T/C (dose: 6.25 mg/kg/injection, schedule: Q01DX009 (ip), vehicle: saline with Tween-80): 126 % of control
T/C (dose: 12.5 mg/kg/injection, schedule: Q01DX009 (ip), vehicle: saline with Tween-80): 130 and 143 % of control
survivor count (dose: 25.0 mg/kg/injection, schedule: Q01DX009 (ip), vehicle: saline with Tween-80): 3 of 6, 4 of 6, 5 of 6
survivor count [9]: 0 of 6
survivor count [10]: 0 of 6
survivor count [1]: 0 of 6

CN(CCC[NH-])CCC[NH-].[Cl][Pd][Cl]
survivor count (dose: 100.0 mg/kg/injection, schedule: Q04DX002 (ip), vehicle: saline): 3 of 6
survivor count (dose: 200.0 mg/kg/injection, schedule: Q04DX002 (ip), vehicle: saline): 0 of 6
survivor count (dose: 400.0 mg/kg/injection, schedule: Q04DX002 (ip), vehicle: saline): 0 of 6

O=C(COc1ccccc1)OC(=O)COc1ccccc1
survivor count (dose: 400.0 mg/kg/injection, schedule: Q01DX009 (ip), vehicle: other): 1 of 6

C[CH2][Sn]([CH2]C)([O][P+](=O)C[Si](C)(C)c1ccccc1)[O][P+](=O)C[Si](C)(C)c1ccccc1 (configuration not stated)
T/C [6]: 132 % of control
survivor count [7]: 0 of 6 and 4 of 6
survivor count [8]: 0 of 6

CN(C)C1C(O)C2Oc3c(cc(O)c4c3C(=O)c3cc5c(c(O)c3C4=O)C(NC3CCCCC3)CC(C)(O)C5)C(C)(O2)C1O (configuration not stated)
T/C (dose: 20.0 mg/kg/injection, schedule: Q01DX009 (ip), vehicle: other): 133 % of control

Oc1cc2c3c(c1)-c1c(ccc(O)c1O)CC3NCC2 (configuration not stated)
survivor count (dose: 100.0 mg/kg/injection, schedule: Q04DX003 (ip), vehicle: DMSO): 4 of 6

CC(O)CC1(c2ccccc2)CNC(=O)NC1=O (configuration not stated)
survivor count (dose: 200.0 mg/kg/injection, schedule: Q01DX001 (ip), vehicle: Klucel (hydroxypropylcellulose) (HPC)): 6 of 6

Cc1cc2c(=O)[nH]c(N)nc2[nH]1
survivor count (dose: 100.0 mg/kg/injection, schedule: Q01DX009 (ip), vehicle: suspension in saline): 1 of 6
survivor count (dose: 200.0 mg/kg/injection, schedule: Q01DX009 (ip), vehicle: suspension in saline): 0 of 6

c1ccc(-c2nc(N3CCN(c4ccco4)CC3)c3c4c(sc3n2)CCC4)cc1
survivor count (dose: 100.0 mg/kg/injection, schedule: Q01DX005 (ip), vehicle: Klucel (hydroxypropylcellulose) (HPC)): 6 of 6
survivor count [4]: 6 of 6

CCCCN(CCNc1cc(OC)cc2cccnc12)C1CCCC1
survivor count [3]: 0 of 5

CC(C)C(=O)NCCCCCCN1CCCCC1
survivor count [3]: 0 of 5
